Assay results reported in the supplement of paper PMC10849652.
The other results are listed elsewhere or left out.

The chains behind the UniProt entries cited, without tags or fusion partners. Where a name states a change or a piece, a line headed by the entry shows the natural chain unless it says otherwise.
UniProt P69891: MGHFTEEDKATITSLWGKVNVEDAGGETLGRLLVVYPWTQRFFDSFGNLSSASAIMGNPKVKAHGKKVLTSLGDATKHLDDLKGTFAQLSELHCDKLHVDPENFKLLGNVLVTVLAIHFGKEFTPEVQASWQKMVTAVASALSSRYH
UniProt P35269, whole entry, looked up: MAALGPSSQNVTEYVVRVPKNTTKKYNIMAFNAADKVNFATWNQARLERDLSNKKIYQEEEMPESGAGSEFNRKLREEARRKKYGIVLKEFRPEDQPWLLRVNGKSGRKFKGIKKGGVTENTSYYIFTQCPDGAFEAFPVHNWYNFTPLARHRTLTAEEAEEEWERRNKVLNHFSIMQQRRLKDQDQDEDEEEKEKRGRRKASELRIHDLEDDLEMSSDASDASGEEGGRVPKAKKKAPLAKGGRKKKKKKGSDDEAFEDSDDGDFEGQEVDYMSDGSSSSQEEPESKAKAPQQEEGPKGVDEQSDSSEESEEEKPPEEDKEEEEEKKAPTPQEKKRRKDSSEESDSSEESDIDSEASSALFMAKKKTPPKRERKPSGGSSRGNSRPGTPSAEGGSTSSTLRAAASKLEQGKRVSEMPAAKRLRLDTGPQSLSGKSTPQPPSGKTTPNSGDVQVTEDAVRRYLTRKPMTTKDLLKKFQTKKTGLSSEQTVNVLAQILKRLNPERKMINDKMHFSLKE
UniProt Q9Y450, whole entry, looked up: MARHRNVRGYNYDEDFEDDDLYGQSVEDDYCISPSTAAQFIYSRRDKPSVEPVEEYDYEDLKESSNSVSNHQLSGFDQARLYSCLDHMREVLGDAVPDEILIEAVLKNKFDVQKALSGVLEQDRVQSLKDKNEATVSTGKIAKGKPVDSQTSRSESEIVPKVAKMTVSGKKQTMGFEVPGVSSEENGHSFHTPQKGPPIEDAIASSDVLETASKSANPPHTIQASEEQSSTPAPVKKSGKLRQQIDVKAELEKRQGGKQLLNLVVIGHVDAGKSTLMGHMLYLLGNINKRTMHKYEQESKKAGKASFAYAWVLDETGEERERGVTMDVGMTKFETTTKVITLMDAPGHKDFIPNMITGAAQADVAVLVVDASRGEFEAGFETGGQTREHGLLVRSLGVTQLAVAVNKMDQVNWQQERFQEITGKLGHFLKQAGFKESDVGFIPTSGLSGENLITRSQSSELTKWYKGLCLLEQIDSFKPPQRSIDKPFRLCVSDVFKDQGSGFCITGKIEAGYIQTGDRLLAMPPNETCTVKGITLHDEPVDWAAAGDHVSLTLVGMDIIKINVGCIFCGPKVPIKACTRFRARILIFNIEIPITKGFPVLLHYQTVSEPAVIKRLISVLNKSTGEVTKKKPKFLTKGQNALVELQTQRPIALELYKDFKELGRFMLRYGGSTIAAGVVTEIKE
UniProt P69892: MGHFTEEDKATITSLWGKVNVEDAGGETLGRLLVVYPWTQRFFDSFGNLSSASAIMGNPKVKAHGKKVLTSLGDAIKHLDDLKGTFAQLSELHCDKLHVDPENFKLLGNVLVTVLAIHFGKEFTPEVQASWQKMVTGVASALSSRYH
UniProt P02100: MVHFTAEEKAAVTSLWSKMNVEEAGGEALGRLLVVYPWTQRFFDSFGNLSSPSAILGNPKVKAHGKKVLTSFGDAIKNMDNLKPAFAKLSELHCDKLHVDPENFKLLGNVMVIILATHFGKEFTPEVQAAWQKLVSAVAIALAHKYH
UniProt Q9Y2Q3: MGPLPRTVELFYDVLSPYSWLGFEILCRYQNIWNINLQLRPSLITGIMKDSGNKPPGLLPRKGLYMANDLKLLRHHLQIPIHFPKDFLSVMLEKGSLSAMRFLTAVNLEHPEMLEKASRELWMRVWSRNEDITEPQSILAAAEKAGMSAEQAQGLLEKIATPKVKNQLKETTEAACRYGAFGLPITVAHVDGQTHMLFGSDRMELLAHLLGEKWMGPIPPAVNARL
UniProt P06396, whole entry, looked up: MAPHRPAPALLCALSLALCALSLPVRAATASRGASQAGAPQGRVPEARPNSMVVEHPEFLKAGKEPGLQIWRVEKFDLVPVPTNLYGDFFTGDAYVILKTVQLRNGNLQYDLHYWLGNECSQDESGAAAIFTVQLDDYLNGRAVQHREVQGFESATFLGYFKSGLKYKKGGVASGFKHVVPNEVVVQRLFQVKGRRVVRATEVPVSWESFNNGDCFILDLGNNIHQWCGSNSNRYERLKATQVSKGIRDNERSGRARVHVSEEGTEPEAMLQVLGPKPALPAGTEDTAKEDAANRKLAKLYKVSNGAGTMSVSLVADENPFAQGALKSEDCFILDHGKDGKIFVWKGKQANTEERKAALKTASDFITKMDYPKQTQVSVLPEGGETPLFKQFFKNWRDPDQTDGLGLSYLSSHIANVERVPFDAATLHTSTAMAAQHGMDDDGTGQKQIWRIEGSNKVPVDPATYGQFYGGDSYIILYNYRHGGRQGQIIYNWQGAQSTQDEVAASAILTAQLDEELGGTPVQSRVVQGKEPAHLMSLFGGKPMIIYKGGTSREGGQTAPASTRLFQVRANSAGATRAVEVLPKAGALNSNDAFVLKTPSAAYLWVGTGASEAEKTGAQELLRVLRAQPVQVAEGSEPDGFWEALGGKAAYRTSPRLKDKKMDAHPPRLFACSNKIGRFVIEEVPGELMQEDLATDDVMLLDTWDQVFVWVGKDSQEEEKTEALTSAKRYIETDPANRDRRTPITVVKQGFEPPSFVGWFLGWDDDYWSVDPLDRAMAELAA
UniProt Q6AI08: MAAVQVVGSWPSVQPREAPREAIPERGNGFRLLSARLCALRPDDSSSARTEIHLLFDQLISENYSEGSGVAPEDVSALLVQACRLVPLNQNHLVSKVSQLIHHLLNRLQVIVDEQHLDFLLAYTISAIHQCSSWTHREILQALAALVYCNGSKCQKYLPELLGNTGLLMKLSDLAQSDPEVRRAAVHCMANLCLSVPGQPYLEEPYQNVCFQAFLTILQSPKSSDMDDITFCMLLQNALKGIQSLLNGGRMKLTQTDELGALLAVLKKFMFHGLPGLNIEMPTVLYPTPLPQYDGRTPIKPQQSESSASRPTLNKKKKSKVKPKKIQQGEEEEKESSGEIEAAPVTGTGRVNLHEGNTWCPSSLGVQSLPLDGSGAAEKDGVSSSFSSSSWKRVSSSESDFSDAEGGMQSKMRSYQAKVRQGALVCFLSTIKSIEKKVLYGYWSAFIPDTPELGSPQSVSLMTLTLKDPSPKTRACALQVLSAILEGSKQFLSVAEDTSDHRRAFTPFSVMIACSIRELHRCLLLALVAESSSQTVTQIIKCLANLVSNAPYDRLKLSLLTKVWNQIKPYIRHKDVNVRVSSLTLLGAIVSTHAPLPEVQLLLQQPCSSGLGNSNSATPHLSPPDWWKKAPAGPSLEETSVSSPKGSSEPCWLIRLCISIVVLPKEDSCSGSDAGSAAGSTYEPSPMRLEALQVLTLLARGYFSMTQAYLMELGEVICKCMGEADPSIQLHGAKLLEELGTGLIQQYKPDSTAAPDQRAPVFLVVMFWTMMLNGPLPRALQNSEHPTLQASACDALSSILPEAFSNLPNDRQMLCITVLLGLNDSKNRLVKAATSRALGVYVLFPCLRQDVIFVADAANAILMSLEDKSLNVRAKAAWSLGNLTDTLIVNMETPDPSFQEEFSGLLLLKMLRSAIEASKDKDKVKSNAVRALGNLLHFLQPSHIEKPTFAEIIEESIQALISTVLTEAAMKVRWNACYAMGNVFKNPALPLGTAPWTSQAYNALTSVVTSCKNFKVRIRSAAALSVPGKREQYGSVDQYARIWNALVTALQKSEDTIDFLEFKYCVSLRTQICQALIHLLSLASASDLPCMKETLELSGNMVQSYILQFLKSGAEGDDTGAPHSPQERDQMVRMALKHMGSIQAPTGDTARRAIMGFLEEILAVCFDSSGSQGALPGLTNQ
UniProt P14317: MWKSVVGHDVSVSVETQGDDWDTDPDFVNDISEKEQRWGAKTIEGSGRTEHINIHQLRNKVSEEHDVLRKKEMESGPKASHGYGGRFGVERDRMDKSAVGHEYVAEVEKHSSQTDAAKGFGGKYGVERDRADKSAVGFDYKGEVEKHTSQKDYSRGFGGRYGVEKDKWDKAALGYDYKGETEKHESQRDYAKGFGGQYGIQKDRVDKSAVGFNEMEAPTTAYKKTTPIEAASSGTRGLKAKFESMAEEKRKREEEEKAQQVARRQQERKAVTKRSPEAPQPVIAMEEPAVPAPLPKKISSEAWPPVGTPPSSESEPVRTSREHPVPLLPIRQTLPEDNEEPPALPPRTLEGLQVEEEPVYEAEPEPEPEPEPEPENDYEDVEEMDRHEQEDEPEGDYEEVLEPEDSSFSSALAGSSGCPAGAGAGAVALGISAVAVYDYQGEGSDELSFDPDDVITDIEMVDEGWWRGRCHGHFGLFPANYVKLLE
UniProt P16402, whole entry, looked up: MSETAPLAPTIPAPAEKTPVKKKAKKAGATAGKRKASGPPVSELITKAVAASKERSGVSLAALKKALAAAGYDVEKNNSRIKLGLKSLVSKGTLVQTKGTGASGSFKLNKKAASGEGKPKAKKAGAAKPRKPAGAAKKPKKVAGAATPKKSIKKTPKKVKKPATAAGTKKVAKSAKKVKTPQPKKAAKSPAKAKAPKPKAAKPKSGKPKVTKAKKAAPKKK
UniProt A4D1E9: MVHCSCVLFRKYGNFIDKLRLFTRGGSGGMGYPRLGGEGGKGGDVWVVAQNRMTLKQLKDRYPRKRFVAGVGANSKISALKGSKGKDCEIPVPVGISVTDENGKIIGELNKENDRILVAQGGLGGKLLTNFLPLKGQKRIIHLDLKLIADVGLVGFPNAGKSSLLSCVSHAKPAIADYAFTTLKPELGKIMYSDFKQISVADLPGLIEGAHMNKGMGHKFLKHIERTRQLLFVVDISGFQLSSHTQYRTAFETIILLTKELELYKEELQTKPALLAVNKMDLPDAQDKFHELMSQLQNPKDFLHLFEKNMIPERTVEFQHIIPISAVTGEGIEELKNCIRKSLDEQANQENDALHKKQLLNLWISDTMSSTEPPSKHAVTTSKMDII
UniProt P02724: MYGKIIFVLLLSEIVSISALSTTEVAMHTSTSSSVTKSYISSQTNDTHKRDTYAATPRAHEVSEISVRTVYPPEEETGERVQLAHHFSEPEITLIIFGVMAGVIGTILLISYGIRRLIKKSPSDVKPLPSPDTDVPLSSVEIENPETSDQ
UniProt Q13888: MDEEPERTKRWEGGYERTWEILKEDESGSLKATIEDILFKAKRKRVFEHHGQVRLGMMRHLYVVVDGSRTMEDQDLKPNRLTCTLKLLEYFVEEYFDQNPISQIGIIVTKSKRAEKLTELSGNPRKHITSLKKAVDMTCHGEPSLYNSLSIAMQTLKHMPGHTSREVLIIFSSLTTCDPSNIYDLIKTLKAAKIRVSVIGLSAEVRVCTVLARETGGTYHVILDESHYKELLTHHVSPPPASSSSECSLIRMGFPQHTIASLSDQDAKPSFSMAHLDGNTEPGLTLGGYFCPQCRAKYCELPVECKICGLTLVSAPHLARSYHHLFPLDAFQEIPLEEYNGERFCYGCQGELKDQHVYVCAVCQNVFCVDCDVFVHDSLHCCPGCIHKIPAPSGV

Key:
Test in all cases: log2 fold change, soluble protein after heating vs DMSO (PISA); higher = thermal stabilisation; K562 cells, 10 uM, 30 min; active = over 0.2 and 3.5 SD of the protein, either way, in both replicates (recomputed)
saracatinib = compound: CN1CCN(CCOc2cc(OC3CCOCC3)c3c(Nc4c(Cl)ccc5c4OCO5)ncnc3c2)CC1 [saracatinib]
Method in brief: (§1)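 K562 cells at 2×10^6 cells/mL were exposed to 10 μM compound for 30 min, then aliquots were heated for 3 min across 48°C-58°C, pooled, and extracted in PBS containing 0.5% NP-40 at 4°C. The supernatant after 21,000xg for 90 min was taken as soluble protein and measured by TMTpro 16plex LC-MS/MS with channel sums equalised. Thermal stability is reported relative to control samples, with values from duplicates. Fold changes are given on a log2 scale.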

sotrastaurin = compound: CN1CCN(c2nc(C3=C(c4c[nH]c5ccccc45)C(=O)NC3=O)c3ccccc3n2)CC1 [sotrastaurin]
Method in brief: as §1

alvocidib = compound: CN1CC[C@H](c2c(O)cc(O)c3c(=O)cc(-c4ccccc4Cl)oc23)[C@H](O)C1 [alvocidib]
Method in brief: as §1

Tubastatin A = compound: CN1CCc2c(c3ccccc3n2Cc2ccc(C(=O)NO)cc2)C1 [Tubastatin A]
Method in brief: as §1

[1] = compound: CNC(=O)C1=CC=CC=C1NC2=NC(=NC=C2Cl)NC3=C(C=C(C=C3)N4CCOCC4)OC
Method in brief: as §1

defactinib = compound: CNC(=O)c1ccc(Nc2ncc(C(F)(F)F)c(NCc3nccnc3N(C)S(C)(=O)=O)n2)cc1 [defactinib]
Method in brief: as §1

rucaparib = compound: CNCc1ccc(-c2[nH]c3cc(F)cc4c3c2CCNC4=O)cc1 [rucaparib]
Method in brief: as §1

[2] = compound: CNc1nc(-c2ccc3c(N)n[nH]c3c2)cc(N2C[C@@H](C(=O)NC3CCCCC3)CC[C@H]2C)n1
Method in brief: as §1

encorafenib = compound: COC(=O)N[C@@H](C)CNc1nccc(-c2cn(C(C)C)nc2-c2cc(Cl)cc(NS(C)(=O)=O)c2F)n1 [encorafenib]
Method in brief: as §1

[3] = compound: COC(=O)[C@H](CCSC)NC(=O)C1=C(C=C(C=C1)NC[C@H](CS)N)C2=CC=CC=C2
Method in brief: as §1

[4] = compound: COC1=CC=C(C=C1)CN2C=CC3=C2C=C(C=C3)C(=O)NO
Method in brief: as §1

filanesib = compound: CON(C)C(=O)N1N=C(c2cc(F)ccc2F)S[C@@]1(CCCN)c1ccccc1 [filanesib]
Method in brief: as §1

zotarolimus = compound: CO[C@H]1C[C@@H]2CC[C@@H](C)[C@@](O)(O2)C(=O)C(=O)N2CCCC[C@H]2C(=O)O[C@H]([C@H](C)C[C@@H]2CC[C@H](n3cnnn3)[C@H](OC)C2)CC(=O)[C@H](C)/C=C(\C)[C@@H](O)[C@@H](OC)C(=O)[C@H](C)C[C@H](C)/C=C/C=C/C=C/1C [zotarolimus]
Method in brief: as §1

idasanutlin = compound: COc1cc(C(=O)O)ccc1NC(=O)[C@@H]1N[C@@H](CC(C)(C)C)[C@](C#N)(c2ccc(Cl)cc2F)[C@H]1c1cccc(Cl)c1F [idasanutlin]
Method in brief: as §1

alisertib = compound: COc1cc(Nc2ncc3c(n2)-c2ccc(Cl)cc2C(c2c(F)cccc2OC)=NC3)ccc1C(=O)O [alisertib]
Method in brief: as §1

[5] = compound: COc1cc2nc(-c3cc(F)ccc3O)nc(N[C@@H]3CNC[C@H]3C(C)(C)O)c2cc1OC
Method in brief: as §1

gefitinib = compound: COc1cc2ncnc(Nc3ccc(F)c(Cl)c3)c2cc1OCCCN1CCOCC1 [gefitinib]
Method in brief: as §1

[6] = compound: COc1cccc2cc(-c3nc([C@H]4CC[C@H](C(=O)O)CC4)n4ncnc(N)c34)[nH]c12
Method in brief: as §1

lapatinib = compound: CS(=O)(=O)CCNCc1ccc(-c2ccc3ncnc(Nc4ccc(OCc5cccc(F)c5)c(Cl)c4)c3c2)o1 [lapatinib]
Method in brief: as §1

pictilisib = compound: CS(=O)(=O)N1CCN(Cc2cc3nc(-c4cccc5[nH]ncc45)nc(N4CCOCC4)c3s2)CC1 [pictilisib]
Method in brief: as §1

Measured: log2 fold change

HBG1 (UniProt P69891)
inactive: saracatinib -0.001 | sotrastaurin 0.021 | alvocidib -0.018 | Tubastatin A -0.007 | [1] -0.036 | defactinib -0.023 | rucaparib -0.031 | [2] -0.006 | encorafenib -0.024 | [3] -0.046 | [4] 0.066 | filanesib -0.025 | zotarolimus 0.049 | idasanutlin -0.033 | alisertib -0.046 | [5] -0.136 | gefitinib -0.016 | [6] 0.074 | lapatinib 0.004 | pictilisib -0.005

GTF2F1 (UniProt P35269)
inactive: saracatinib 0.059 | sotrastaurin 0.03 | alvocidib 0.055 | Tubastatin A 0.029 | [1] -0.051 | defactinib 0.019 | rucaparib 0.015 | [2] -0.009 | encorafenib -0.015 | [3] -0.012 | [4] 0.038 | filanesib -0.019 | zotarolimus -0.037 | idasanutlin -0.05 | alisertib -0.065 | [5] 0.07 | gefitinib 0.01 | [6] 0.01 | lapatinib -0.053 | pictilisib 0.007

HBS1L (UniProt Q9Y450)
inactive: saracatinib 0.026 | sotrastaurin 0.017 | alvocidib -0.003 | Tubastatin A 0.006 | [1] 0.016 | defactinib 0.017 | rucaparib -0.002 | [2] 0.005 | encorafenib 0.027 | [3] -0.02 | [4] 0.017 | filanesib -0.024 | zotarolimus -0.034 | idasanutlin -0.028 | alisertib -0.017 | [5] 0.051 | gefitinib -0.006 | [6] -0.015 | lapatinib 0.005 | pictilisib 0.017

HBG2 (UniProt P69892)
inactive: saracatinib 0.023 | sotrastaurin -0.082 | alvocidib -0.031 | Tubastatin A 0.007 | [1] -0.025 | defactinib -0.022 | rucaparib 0 | [2] -0.01 | encorafenib 0.011 | [3] -0.003 | [4] 0.118 | filanesib -0.092 | zotarolimus 0.057 | idasanutlin -0.069 | alisertib -0.127 | [5] -0.142 | gefitinib -0.034 | [6] 0.035 | lapatinib 0.093 | pictilisib -0.058

HBE1 (UniProt P02100)
inactive: saracatinib -0.012 | sotrastaurin 0.005 | alvocidib -0.037 | Tubastatin A -0.117 | [1] -0.033 | defactinib -0.028 | rucaparib -0.034 | [2] -0.007 | encorafenib -0.026 | [3] -0.049 | [4] 0.035 | filanesib -0.007 | zotarolimus 0.056 | idasanutlin -0.032 | alisertib -0.077 | [5] -0.09 | gefitinib -0.013 | [6] 0.098 | lapatinib -0.04 | pictilisib 0.127

GSTK1 (UniProt Q9Y2Q3)
inactive: saracatinib -0.055 | sotrastaurin 0.007 | alvocidib -0.046 | Tubastatin A 0.004 | [1] -0.031 | defactinib -0.016 | rucaparib -0.049 | [2] 0.05 | encorafenib 0.012 | [3] -0.02 | [4] -0.038 | filanesib -0.003 | zotarolimus 0.066 | idasanutlin -0.115 | alisertib -0.078 | [5] 0.045 | gefitinib 0.027 | [6] 0.029 | lapatinib -0.039 | pictilisib 0.016

GSN (UniProt P06396)
inactive: saracatinib 0.006 | sotrastaurin 0.1 | alvocidib 0.041 | Tubastatin A -0.049 | [1] 0.005 | defactinib -0.01 | rucaparib -0.098 | [2] -0.044 | encorafenib -0.027 | [3] 0.083 | [4] 0.015 | filanesib -0.013 | zotarolimus -0.146 | idasanutlin 0.047 | alisertib 0.108 | [5] -0.015 | gefitinib -0.059 | [6] 0.226 | lapatinib -0.03 | pictilisib -0.034

Taken from above (three entries):
HBE1 (UniProt P02100)
inactive: saracatinib -0.012 | sotrastaurin 0.005 | alvocidib -0.037 | Tubastatin A -0.117 | [1] -0.033 | defactinib -0.028 | rucaparib -0.034 | [2] -0.007 | encorafenib -0.026 | [3] -0.049 | [4] 0.035 | filanesib -0.007 | zotarolimus 0.056 | idasanutlin -0.032 | alisertib -0.077 | [5] -0.09 | gefitinib -0.013 | [6] 0.098 | lapatinib -0.04 | pictilisib 0.127

GSTK1 (UniProt Q9Y2Q3)
inactive: saracatinib -0.055 | sotrastaurin 0.007 | alvocidib -0.046 | Tubastatin A 0.004 | [1] -0.031 | defactinib -0.016 | rucaparib -0.049 | [2] 0.05 | encorafenib 0.012 | [3] -0.02 | [4] -0.038 | filanesib -0.003 | zotarolimus 0.066 | idasanutlin -0.115 | alisertib -0.078 | [5] 0.045 | gefitinib 0.027 | [6] 0.029 | lapatinib -0.039 | pictilisib 0.016

GSN (UniProt P06396)
inactive: saracatinib 0.006 | sotrastaurin 0.1 | alvocidib 0.041 | Tubastatin A -0.049 | [1] 0.005 | defactinib -0.01 | rucaparib -0.098 | [2] -0.044 | encorafenib -0.027 | [3] 0.083 | [4] 0.015 | filanesib -0.013 | zotarolimus -0.146 | idasanutlin 0.047 | alisertib 0.108 | [5] -0.015 | gefitinib -0.059 | [6] 0.226 | lapatinib -0.03 | pictilisib -0.034

Remaining list, next part.

H4C1 (UniProt P62805)
inactive: saracatinib -0.173 | sotrastaurin 0.042 | alvocidib 0.105 | Tubastatin A 0.065 | [1] -0.044 | defactinib 0.451 | rucaparib 0.406 | [2] 0.134 | encorafenib -0.038 | [3] 0.129 | [4] 0.103 | filanesib 0.15 | zotarolimus -0.215 | idasanutlin 0.507 | alisertib 0.077 | [5] -0.149 | gefitinib 0.011 | [6] -0.42 | lapatinib 0.074 | pictilisib 0.004

HEATR6 (UniProt Q6AI08)
inactive: saracatinib -0.047 | sotrastaurin -0.161 | alvocidib -0.014 | Tubastatin A 0.023 | [1] -0.062 | defactinib 0.077 | rucaparib -0.047 | [2] -0.075 | encorafenib -0.039 | [3] -0.12 | [4] 0.33 | filanesib -0.053 | zotarolimus -0.064 | idasanutlin -0.131 | alisertib -0.079 | [5] 0.077 | gefitinib 0.044 | [6] -0.007 | lapatinib -0.011

HAGH (UniProt Q16775)
inactive: saracatinib -0.004 | sotrastaurin 0.032 | alvocidib -0.006 | Tubastatin A -0.039 | [1] -0.018 | defactinib -0.004 | rucaparib -0.002 | [2] -0.056 | encorafenib -0.051 | [3] 0.041 | [4] -0.095 | filanesib -0.052 | zotarolimus -0.052 | idasanutlin -0.045 | alisertib -0.013 | [5] -0.045 | gefitinib 0.011 | [6] 0.055 | lapatinib -0.006 | pictilisib 0.018

HCLS1 (UniProt P14317)
inactive: saracatinib 0.036 | sotrastaurin 0.067 | alvocidib 0.006 | Tubastatin A 0.01 | [1] -0.027 | defactinib -0.048 | rucaparib -0.064 | [2] -0.038 | encorafenib -0.01 | [3] 0.029 | [4] -0.031 | filanesib -0.008 | zotarolimus 0.003 | idasanutlin -0.018 | alisertib -0.047 | [5] 0.046 | gefitinib -0.006 | [6] 0.061 | lapatinib -0.05 | pictilisib 0.059

H1-3 (UniProt P16402)
inactive: saracatinib -0.04 | sotrastaurin -0.079 | alvocidib 0.252 | Tubastatin A 0.054 | [1] 0.035 | defactinib 0.263 | rucaparib 0.284 | [2] 0.096 | encorafenib 0.147 | [3] -0.04 | [4] -0.097 | filanesib 0.338 | zotarolimus -0.018 | idasanutlin 0.16 | alisertib -0.307 | [5] -0.113 | gefitinib 0.005 | [6] -0.371 | lapatinib 0.18 | pictilisib -0.149

GTPBP10 (UniProt A4D1E9)
inactive: saracatinib -0.066 | sotrastaurin -0.027 | alvocidib -0.022 | Tubastatin A 0.021 | [1] -0.061 | defactinib -0.071 | rucaparib -0.003 | [2] 0.146 | encorafenib 0.07 | [3] -0.024 | [4] -0.032 | filanesib 0.096 | zotarolimus 0.151 | idasanutlin 0.075 | alisertib -0.029 | [5] 0.031 | gefitinib 0.083 | [6] -0.045 | lapatinib 0.029 | pictilisib -0.021

GYPA (UniProt P02724)
inactive: saracatinib -0.068 | sotrastaurin -0.037 | alvocidib -0.123 | Tubastatin A -0.016 | [1] -0.128 | defactinib -0.066 | rucaparib -0.072 | [2] 0.096 | encorafenib -0.131 | [3] 0.075 | [4] 0.072 | filanesib 0.002 | zotarolimus -0.016 | idasanutlin 0.14 | alisertib -0.11 | [5] 0.019 | gefitinib 0.063 | [6] -0.053 | lapatinib 0.078 | pictilisib 0.016

GTF2H2 (UniProt Q13888)
inactive: saracatinib -0.024 | sotrastaurin -0.035 | alvocidib -0.026 | Tubastatin A 0.068 | [1] -0.005 | defactinib -0.093 | rucaparib 0.032 | [2] -0.013 | encorafenib 0.002 | [3] -0.057 | [4] 0.001 | filanesib 0.07 | zotarolimus 0.068 | idasanutlin -0.01 | alisertib -0.027 | [5] 0.003 | gefitinib -0.006 | [6] -0.012 | lapatinib 0.04 | pictilisib 0.004

HERC1 (UniProt Q15751)
inactive: saracatinib 0.008 | sotrastaurin -0.043 | alvocidib -0.012 | Tubastatin A -0.046 | [1] 0.017 | defactinib -0.016 | rucaparib -0.012 | [2] 0.006 | encorafenib 0.005 | [3] -0.019 | [4] 0.002 | filanesib 0.017 | zotarolimus 0.017 | idasanutlin -0.028 | alisertib -0.015 | [5] 0.025 | gefitinib -0.007 | [6] -0.008 | lapatinib 0.073 | pictilisib -0.011
